The list is a part of this screen's results and no random one: it is rich in T/C values a quarter to a half above the control, in often repeated tests (any T/C) and in doses without a T/C. Further doses and runs are listed elsewhere. T/C: endpoint of the treated group in % of that of the vehicle group. Schedule codes are those of the source, read here as Q, the interval in days (D) or hours (H), X, the number of doses. Some entries give survivors of the animals treated and no T/C: the source holds a T/C of zero for them, seemingly a mark for toxic or unscored doses. Survivors were counted at the toxicity check, usually on the fifth day, unless a day is given; later deaths do not show. Some doses were run more than once; their values stand side by side, smallest first. Some schedules carry Z or #; the key to these is not given.
Tested on: C3AKF1 mice, hamster liver cystadenocarcinoma s.c., tumor weight T/C
Experiment: NCI In Vivo Anticancer Drug Screen. Data for tumor model Cystadenocarcinoma, Liver (No. 1) (Hamster) (subcutaneous) in C3AKF1 (CHKRF1) mice
Settings: T/C endpoint: mean tumor weight, higher T/C = larger tumour; for T/C: evaluated on day 15
Method: The antitumor activity of compounds was measured in mice bearing transplantable tumors. Survival or tumor size were measured and the results are expressed as the measurement made in the treated group (T) divided by the measurement made in the vehicle treated control group (C). The tumor model used in this assay is Cystadenocarcinoma, Liver (No. 1) (Hamster) (subcutaneous) in C3AKF1 (CHKRF1) mice

[1] = dose: 80.0 mg/kg/injection, schedule: Q01DX010 (ip), vehicle: carboxymethylcellulose (CMC)
[2] = dose: 160.0 mg/kg/injection, schedule: Q01DX010 (ip), vehicle: carboxymethylcellulose (CMC)
[3] = dose: 100.0 mg/kg/injection, schedule: Q01DX010 (ip), vehicle: carboxymethylcellulose (CMC)
[4] = dose: 200.0 mg/kg/injection, schedule: Q01DX010 (ip), vehicle: carboxymethylcellulose (CMC)
[5] = dose: 400.0 mg/kg/injection, schedule: Q01DX010 (ip), vehicle: carboxymethylcellulose (CMC)
[6] = dose: 150.0 mg/kg/injection, schedule: Q01DX010 (ip), vehicle: carboxymethylcellulose (CMC)
[7] = dose: 300.0 mg/kg/injection, schedule: Q01DX010 (ip), vehicle: carboxymethylcellulose (CMC)
[8] = dose: 40.0 mg/kg/injection, schedule: Q01DX010 (ip), vehicle: carboxymethylcellulose (CMC)
[9] = dose: 60.0 mg/kg/injection, schedule: Q01DX010 (ip), vehicle: carboxymethylcellulose (CMC)
[10] = dose: 120.0 mg/kg/injection, schedule: Q01DX010 (ip), vehicle: carboxymethylcellulose (CMC)
[11] = dose: 25.0 mg/kg/injection, schedule: Q01DX010 (ip), vehicle: carboxymethylcellulose (CMC)
[12] = dose: 500.0 mg/kg/injection, schedule: Q01DX010 (ip), vehicle: carboxymethylcellulose (CMC)
[13] = dose: 1000.0 mg/kg/injection, schedule: Q01DX010 (ip), vehicle: carboxymethylcellulose (CMC)

With `CS(=O)(=O)OCC(=O)NCCNC(=O)COS(C)(=O)=O` the T/C [1] was 127 % of control and the survivor count [2] was 0 of 6.
In the case of `S=c1c2[nH]cnc2ncn1CCSC1=NC=NC2=NC=NC21` (stereo not drawn), the T/C (dose: 50.0 mg/kg/injection, schedule: Q01DX010 (ip), vehicle: carboxymethylcellulose (CMC)) is reported as 146 % of control, the T/C [3] is reported as 126 % of control and the survivor count [4] is reported as 3 of 6. For the same compound, the survivor count [5] was 3 of 6.
`Nc1nc(SCc2ccccc2Cl)c2[nH]cnc2n1` was tested, and the survivor count [4] was 2 of 6 and the survivor count [5] was 0 of 6.
In the case of `c1ccc(CSc2ncnc3nc[nH]c23)nc1`, the survivor count [6] is reported as 0 of 6, the survivor count [7] is reported as 0 of 6 and the survivor count (dose: 600.0 mg/kg/injection, schedule: Q01DX010 (ip), vehicle: carboxymethylcellulose (CMC)) is reported as 0 of 6.
In the case of `CN(C)c1ccc(/C=C\c2ccnc3ccccc23)cc1`, the survivor count [8] is reported as 1 of 8 and the survivor count [1] is reported as 0 of 8.
With `Cn1cnc([N+](=O)[O-])c1Sc1nc(N)nc2c1ncn2C1OC(CO)C(O)C1O` (stereo not drawn) the T/C (dose: 15.0 mg/kg/injection, schedule: Q01DX010 (ip), vehicle: carboxymethylcellulose (CMC)) was 136 % of control, the survivor count (dose: 30.0 mg/kg/injection, schedule: Q01DX010 (ip), vehicle: carboxymethylcellulose (CMC)) was 3 of 6 and the survivor count [9] was 0 of 6.
With `CCCC(Sc1nc(N)nc2nc[nH]c12)C(=O)O` (stereo not drawn) the T/C [8] was 127 % of control and the survivor count (dose: 320.0 mg/kg/injection, schedule: Q01DX010 (ip), vehicle: carboxymethylcellulose (CMC)) was 2 of 6.
For `NC(=O)c1ccc(NC(=O)CCC(=O)Nc2ccc(C(N)=O)cn2)nc1`, the survivor count (dose: 5.0 mg/kg/injection, schedule: Q01DX010 (ip), vehicle: carboxymethylcellulose (CMC)) was 0 of 7 and the survivor count (dose: 10.0 mg/kg/injection, schedule: Q01DX010 (ip), vehicle: carboxymethylcellulose (CMC)) was 0 of 7.
For `O=c1c[n+](-c2ccccc2)[nH]o1`, the survivor count (dose: 90.0 mg/kg/injection, schedule: Q01DX010 (ip), vehicle: carboxymethylcellulose (CMC)) was 1 of 6 and the survivor count (dose: 180.0 mg/kg/injection, schedule: Q01DX010 (ip), vehicle: carboxymethylcellulose (CMC)) was 1 of 6.
In the case of `Cc1c2ccc3ccccc3c2c[n+]2ccccc12`, the T/C (dose: 6.0 mg/kg/injection, schedule: Q01DX010 (ip), vehicle: carboxymethylcellulose (CMC)) is reported as 130 % of control and the survivor count (dose: 24.0 mg/kg/injection, schedule: Q01DX010 (ip), vehicle: carboxymethylcellulose (CMC)) is reported as 1 of 6.
With `NC(N)=N/N=C/C=N/N=C(N)N` the survivor count [9] was 0 of 6, the survivor count [10] was 0 of 6 and the survivor count (dose: 240.0 mg/kg/injection, schedule: Q01DX010 (ip), vehicle: carboxymethylcellulose (CMC)) was 0 of 6.
For `S=c1nc[nH]c2c1ncn2C1CCCO1` (stereo not drawn), the survivor count [3] was 3 of 6.
With `N#C[C@@H]1C2C=CC(CC2)[C@H]1C#N` the survivor count (dose: 4.0 mg/kg/injection, schedule: Q01DX010 (ip), vehicle: carboxymethylcellulose (CMC)) was 1 of 6.
For `CCn1cnc2c(=S)nc(N)[nH]c21`, the survivor count [9] was 0 of 6 and the survivor count [10] was 0 of 6.
In the case of `CN(C)Nc1ncnc2nc[nH]c12`, the T/C [1] is reported as 125 % of control and the survivor count [2] is reported as 0 of 6.
In the case of `CCc1c(CC(=O)O)c2cc(C)ccc2n1Cc1ccc(Cl)cc1`, the survivor count [11] is reported as 1 of 6 and the survivor count [4] is reported as 3 of 6.
In the case of `CCCCCCCCCCCC[n+]1ccc(C)cc1C`, the survivor count (dose: 0.25 mg/kg/injection, schedule: Q01DX010 (ip), vehicle: saline) is reported as 3 of 7, the survivor count (dose: 0.5 mg/kg/injection, schedule: Q01DX010 (ip), vehicle: saline) is reported as 2 of 7 and 2 of 6 and the survivor count (dose: 1.0 mg/kg/injection, schedule: Q01DX010 (ip), vehicle: saline) is reported as 0 of 7. The survivor count (dose: 2.0 mg/kg/injection, schedule: Q01DX010 (ip), vehicle: saline) was 0 of 7.
With `NNc1nncc2ccccc12` the survivor count [6] was 0 of 7 and the survivor count [7] was 0 of 7.
With `CCN(CC)CCNc1ccc([N+](=O)[O-])c2sc3ccccc3c(=O)c12` the survivor count (dose: 80.0 mg/kg/injection, schedule: Q01DX010 (ip), vehicle: saline) was 3 of 6 and the survivor count (dose: 160.0 mg/kg/injection, schedule: Q01DX010 (ip), vehicle: saline) was 0 of 6.
`CC(C)=CC1C(C(=O)OCc2ccc(C)cc2C)C1(C)C` (stereo not drawn) was tested, and the survivor count [12] was 3 of 6.
`NC(=O)/C=C/C(=O)O` (tested in a mixture with another compound) was tested, and the survivor count (dose: 62.5 mg/kg/injection, schedule: Q#A X010 (ip), vehicle: saline) was 0 of 6, the survivor count (dose: 125.0 mg/kg/injection, schedule: Q#A X010 (ip), vehicle: saline) was 0 of 6 and the survivor count (dose: 250.0 mg/kg/injection, schedule: Q#A X010 (ip), vehicle: saline) was 0 of 6.
`Cc1ccc(N=NN(C)C)cc1` was tested, and the survivor count [3] was 1 of 7 and the survivor count [4] was 1 of 7.
With `CCCCSc1nc(N)nc2c1ncn2CC(C)CC` (stereo not drawn) the survivor count [13] was 0 of 6.
For `CN(C)CCCN1c2ccccc2Sc2ccc(C(F)(F)F)cc21`, the survivor count (dose: 25.0 mg/kg/injection, schedule: Q01DX010 (ip), vehicle: saline) was 2 of 6, the survivor count (dose: 50.0 mg/kg/injection, schedule: Q01DX010 (ip), vehicle: saline) was 0 of 6 and the survivor count (dose: 100.0 mg/kg/injection, schedule: Q01DX010 (ip), vehicle: saline) was 0 of 6.
In the case of `O=C1C=CC(=Nc2ccc(O)c3ncccc23)c2cccnc21`, the survivor count (dose: 12.5 mg/kg/injection, schedule: Q01DX010 (ip), vehicle: carboxymethylcellulose (CMC)) is reported as 1 of 6 and the survivor count [11] is reported as 0 of 6.
In the case of `COc1ccc(-c2c(CC(=O)O)c3cc(OC)ccc3n2Cc2ccc(Cl)cc2)cc1`, the T/C [13] is reported as 142 % of control.
With `O=[N+]([O-])c1ccccc1CSc1ncnc2nc[nH]c12` the survivor count [12] was 1 of 6.
With `CCOc1ccc(Nc2ncnc3nc[nH]c23)cc1CN(CCCl)CCCl` the survivor count (dose: 8.0 mg/kg/injection, schedule: Q01DX010 (ip), vehicle: saline) was 0 of 6.
In the case of `N[C@@H](Cc1ccc(N(CCCl)CCCl)cc1)C(=O)O`, the survivor count (dose: 8.0 mg/kg/injection, schedule: Q01DX010 (ip), vehicle: carboxymethylcellulose (CMC)) is reported as 1 of 6.
In the case of `O=[n+]1c2c(n([O-])c3ccccc31)-c1cccc3cccc-2c13`, the survivor count [4] is reported as 3 of 7.
In the case of `NC(CCSCc1ccc(N(CCCl)CCCl)cc1)C(=O)O` (stereo not drawn), the survivor count (dose: 36.0 mg/kg/injection, schedule: Q01DX010 (ip), vehicle: saline) is reported as 4 of 7 and the survivor count (dose: 54.0 mg/kg/injection, schedule: Q01DX010 (ip), vehicle: saline) is reported as 0 of 7.
`CCCCCCCCCCCCCCCCC(C(=O)O)C(O)(CC(=O)O)C(=O)O` (stereo not drawn) was tested, and the survivor count (dose: 75.0 mg/kg/injection, schedule: Q01DX010 (ip), vehicle: carboxymethylcellulose (CMC)) was 0 of 7 and the survivor count [6] was 0 of 7.
With `CC(C)NCC(=O)c1ccc(O)c(O)c1` the survivor count (dose: 400.0 mg/kg/injection, schedule: Q01DX010 (ip), vehicle: saline) was 2 of 6.
In the case of `Fc1ccc(CSc2ncnc3c2ncn3C2CCCCO2)cc1` (stereo not drawn), the survivor count (dose: 1440.0 mg/kg/injection, schedule: Q01DX010 (ip), vehicle: carboxymethylcellulose (CMC)) is reported as 0 of 6.
For `CS(=O)(=O)OCCCCCCCCCOS(C)(=O)=O`, the survivor count (dose: 28.0 mg/kg/injection, schedule: Q01DX010 (ip), vehicle: carboxymethylcellulose (CMC)) was 4 of 7 and the survivor count (dose: 55.0 mg/kg/injection, schedule: Q01DX010 (ip), vehicle: carboxymethylcellulose (CMC)) was 1 of 7.
